At least one read-out could not be matched to a standard name with certainty.
Tests used:
Assay type in all cases: cell-based
[1] = tested on: Staphylococcus aureus; test: Antibacterial properties of impregnated paper (agar plate, inhibitory zone and growth); conditions: paper with 1% of active substance, 24 hours at 37° C
From the text: (§1) Crude paper, which consists of 90% of bleached sulphite cellulose and 10% of birch pulp, is impregnated in a sizing press with a 2.5% solution of the compound of the formula (11) in methanol+water 2:1 to a weight increase of 40%.
(§2) The dried paper contains 1% of active substance referred to its original weight.
To test its antibacterial properties round blanks of 10 mm diameter of the impregnated paper are placed on brain heart infusion agar plates previously inoculated with Staphylococcus aureus, and the plates are then incubated for 24 hours at 37° C.
(§3) The evaluation extends, on one hand, to the inhibitory zone (IZ in mm) around the paper blanks and, on the other hand, to the microscopically discernible growth (G in %) underneath and/or on the blanks: […]

[2] = tested on: Staphylococcus aureus; test: Activity of impregnated fabrics against bacteria (agar plate, inhibitory zone and growth)
Experimental: (§4) Samples of C. 100 g each of cotton creton are impregnated on a padder with a 1% solution of one of the compounds of the formula (1) in isopropanol at 20° C and then squeezed to a weight increase of 100%.
(§5) Samples of 100 g each of wool cheviot were treated in an identical manner.
(§6) After having been dried at 30° to 40° C. the fabrics contain 1% of active substance referred to their own weight.
To test the activity against bacteria round blanks of 10 mm diameter of the impregnated fabrics, one half of which untreated and the other after having been watered for 24 hours at 29° C., are placed on brain infusion agar plates previously inoculated with Staphylococcus aureus. The plates are then incubated for 24 hours at 37° C.
(§7) The evaluation extends, on one hand, to the inhibitory zones (IZ in mm) around the blanks and, on the other hand, on the growth (G in %) detected under a microscope underneath and/or on the fabric: […]

[3] = tested on: Aspergillus niger; test: Activity of impregnated fabrics against fungi (agar plate, inhibitory zone and growth); conditions: 4320 min
Experimental: as §4, §5, §6
To test the activity against fungi round blanks of 25 mm diameter are placed on beerwort agar plates and then inoculated with Aspergillus niger, and the plates are then incubated for 72 hours at 30° C.
as §7

[4] = tested on: Aspergillus niger; test: Fungicidal activity of impregnated paper (agar plate, inhibitory zone and growth); conditions: paper with 1% of active substance, 72 hours at 30° C
Experimental: as §1, §2
For testing its fungicidal activity round blanks of 25 mm diameter are placed on Mycophil-Agar plates and inoculated with Aspergillus niger, and the plates are incubated for 72 hours at 30° C.
as §3

Measured: growth (G)

benzyl-bis-(2-hydroxyethyl)-dodecyl ammonium pentachlorophenolate
0%: [1] | [2]; cotton with 1% of active substance, untreated, 1440 min | [2]; cotton with 1% of active substance, watered 24 hours at 29° C | [2]; wool with 1% of active substance, untreated, 1440 min | [2]; wool with 1% of active substance, watered 24 hours at 29° C | [3]; cotton with 1% of active substance, untreated | [3]; cotton with 1% of active substance, watered | [3]; wool with 1% of active substance, untreated | [3]; wool with 1% of active substance, watered | [4]

Reference: patent US4025556A, “Quaternary ammonium-hydroxyaryl compounds” (Ciba-Geigy AG, priority 1967, dated 1977)
